The record followed here is PMC4526467.

Amino acid sequences for entries named in this document (tags omitted). A change or cut given only in a name is not applied to a line headed by its entry. Chains listed by the source or under a name are the forms on record and can include a tag or linker.
UniProt P18089: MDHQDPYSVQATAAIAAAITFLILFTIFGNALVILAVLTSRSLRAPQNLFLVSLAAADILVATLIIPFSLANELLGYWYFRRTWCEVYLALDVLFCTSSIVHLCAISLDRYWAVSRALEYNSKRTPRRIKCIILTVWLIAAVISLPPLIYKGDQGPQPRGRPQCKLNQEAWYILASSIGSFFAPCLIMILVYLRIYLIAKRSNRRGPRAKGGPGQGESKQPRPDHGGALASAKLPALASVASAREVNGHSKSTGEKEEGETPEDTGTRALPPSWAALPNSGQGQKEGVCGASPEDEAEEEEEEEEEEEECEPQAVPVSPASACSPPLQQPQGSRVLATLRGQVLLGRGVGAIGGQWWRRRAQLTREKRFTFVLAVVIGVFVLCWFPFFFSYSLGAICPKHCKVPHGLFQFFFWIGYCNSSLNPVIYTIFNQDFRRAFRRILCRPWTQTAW
HA-tagged Del301-303 α2BAR (pcDNA3.1-HA-Del301-303) (P18089, form named): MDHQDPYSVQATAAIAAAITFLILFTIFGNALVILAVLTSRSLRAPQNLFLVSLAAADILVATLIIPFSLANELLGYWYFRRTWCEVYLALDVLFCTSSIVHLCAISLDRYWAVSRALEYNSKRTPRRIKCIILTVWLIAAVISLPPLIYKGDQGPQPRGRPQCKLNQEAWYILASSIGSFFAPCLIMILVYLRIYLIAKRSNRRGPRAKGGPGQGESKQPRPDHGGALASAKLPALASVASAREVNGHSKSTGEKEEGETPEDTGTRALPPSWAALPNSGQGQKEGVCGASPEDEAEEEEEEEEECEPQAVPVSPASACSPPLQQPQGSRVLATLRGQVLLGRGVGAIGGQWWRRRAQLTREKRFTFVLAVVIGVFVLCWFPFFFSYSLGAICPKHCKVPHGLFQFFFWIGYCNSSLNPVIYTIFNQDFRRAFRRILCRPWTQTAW
UniProt O35274: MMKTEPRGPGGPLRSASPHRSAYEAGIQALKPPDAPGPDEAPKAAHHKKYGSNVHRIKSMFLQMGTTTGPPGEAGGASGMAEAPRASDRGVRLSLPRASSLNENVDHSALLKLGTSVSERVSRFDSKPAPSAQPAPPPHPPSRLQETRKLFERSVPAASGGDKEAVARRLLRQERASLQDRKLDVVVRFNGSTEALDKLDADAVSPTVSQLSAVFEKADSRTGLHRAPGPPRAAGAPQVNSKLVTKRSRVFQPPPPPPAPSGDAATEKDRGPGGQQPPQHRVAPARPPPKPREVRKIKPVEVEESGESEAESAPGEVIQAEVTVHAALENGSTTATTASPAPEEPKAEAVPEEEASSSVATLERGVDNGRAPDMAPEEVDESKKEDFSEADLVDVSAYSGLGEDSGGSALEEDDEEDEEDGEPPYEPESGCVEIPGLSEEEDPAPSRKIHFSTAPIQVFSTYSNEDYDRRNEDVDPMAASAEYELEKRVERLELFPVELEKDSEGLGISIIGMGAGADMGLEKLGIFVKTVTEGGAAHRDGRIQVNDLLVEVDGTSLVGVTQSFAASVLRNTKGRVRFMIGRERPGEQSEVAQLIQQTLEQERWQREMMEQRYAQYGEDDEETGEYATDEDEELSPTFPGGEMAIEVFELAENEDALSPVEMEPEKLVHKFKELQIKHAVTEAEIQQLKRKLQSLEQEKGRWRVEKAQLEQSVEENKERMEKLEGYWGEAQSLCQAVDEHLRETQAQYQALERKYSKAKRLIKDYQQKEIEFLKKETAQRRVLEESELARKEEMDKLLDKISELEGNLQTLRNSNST
UniProt Q91YI4: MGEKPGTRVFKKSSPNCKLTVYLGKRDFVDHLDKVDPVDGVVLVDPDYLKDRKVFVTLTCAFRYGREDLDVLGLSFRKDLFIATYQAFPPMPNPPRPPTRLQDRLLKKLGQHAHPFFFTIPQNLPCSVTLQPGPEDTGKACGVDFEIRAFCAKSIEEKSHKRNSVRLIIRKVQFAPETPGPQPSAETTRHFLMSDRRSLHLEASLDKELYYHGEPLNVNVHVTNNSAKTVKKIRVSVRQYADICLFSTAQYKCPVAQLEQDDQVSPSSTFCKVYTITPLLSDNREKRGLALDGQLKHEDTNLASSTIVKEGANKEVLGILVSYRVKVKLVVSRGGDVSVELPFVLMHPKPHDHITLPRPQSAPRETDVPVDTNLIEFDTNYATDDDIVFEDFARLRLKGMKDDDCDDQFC
UniProt Q6R891: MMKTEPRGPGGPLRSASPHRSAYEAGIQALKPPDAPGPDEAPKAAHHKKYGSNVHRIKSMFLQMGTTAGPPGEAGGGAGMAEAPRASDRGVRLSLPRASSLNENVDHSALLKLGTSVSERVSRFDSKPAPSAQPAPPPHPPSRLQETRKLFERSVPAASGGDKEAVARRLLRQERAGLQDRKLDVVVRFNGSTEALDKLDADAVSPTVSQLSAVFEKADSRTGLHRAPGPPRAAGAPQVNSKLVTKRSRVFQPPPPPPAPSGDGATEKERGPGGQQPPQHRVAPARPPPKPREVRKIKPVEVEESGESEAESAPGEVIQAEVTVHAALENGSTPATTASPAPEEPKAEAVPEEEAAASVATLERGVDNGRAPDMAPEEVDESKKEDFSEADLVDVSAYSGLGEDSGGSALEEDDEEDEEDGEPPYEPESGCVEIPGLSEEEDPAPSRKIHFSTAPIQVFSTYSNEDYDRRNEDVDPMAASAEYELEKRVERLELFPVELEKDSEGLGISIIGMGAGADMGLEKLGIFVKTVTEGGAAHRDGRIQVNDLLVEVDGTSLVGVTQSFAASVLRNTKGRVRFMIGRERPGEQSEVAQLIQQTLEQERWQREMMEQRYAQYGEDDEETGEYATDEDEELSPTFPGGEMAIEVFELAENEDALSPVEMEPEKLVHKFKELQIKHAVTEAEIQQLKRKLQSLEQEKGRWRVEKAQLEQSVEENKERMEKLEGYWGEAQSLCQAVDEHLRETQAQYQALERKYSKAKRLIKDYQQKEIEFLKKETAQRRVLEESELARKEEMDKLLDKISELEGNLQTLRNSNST

No constants are given. Whether binding was seen depends on the method and setting. Binding seen in cells or lysates may run through a third protein. Some entries that bind do so weakly or less than the wild type.

The target in test [1] is HA-tagged Del301-303 α2BAR (pcDNA3.1-HA-Del301-303) (human) (UniProt P18089). Description: co-IP; transfected cells co-expressing HA-tagged WT or Del301-303 α2BAR with GFP-Arr3, GFP-Arr3R170E or Myc-spinophilin, with or without 100 μM epinephrine plus 1 μM propranolol; IP with rat anti-HA antibody.
Test [2] concerns the target HA-tagged wild type human α2BAR (pcDNA3.1-HA-α2B) (human) (UniProt P18089). The test is described as above.
Test [3] deals with HA-α2BAR (α2B adrenergic receptor) expressed in mouse embryonic fibroblasts (UniProt P18089). Description: co-IP; data not shown: as in the MEF co-IP but with other α2 agonists, including clonidine and UK14,304.
Test [4] has the same target. Description: co-IP; MEFs (Sp+/+, Sp-/-, Arr2,3+/+, Arr2,3-/-) expressing HA-α2BAR, with or without 100 μM epinephrine plus 1 μM propranolol; lysis in 10 mM Tris HCl pH 8.0, 0.3% Nonidet P-40, 10% glycerol, 5 mM EDTA, 5 mM EGTA; IP with rat anti-HA antibody; endogenous arrestin 3 or spinophilin blotted.

Regarding “Myc-spinophilin (pCMV4-Myc-Sp) (from UniProt O35274 1-817)”, the binding entry in test [1] and in test [2] was “binds” in each case.

Regarding “endogenous arrestin 3 (from UniProt Q91YI4 1-410)”, the binding entry in test [3] and in test [4] was “binds” throughout.

Take “endogenous spinophilin (from UniProt Q6R891 1-817)”: the binding result in test [3] and in test [4] was “binds” throughout.
